These results are taken from PMC8511049, “hSSB2 (NABP1) is required for the recruitment of RPA during the cellular response to DNA UV damage”.

Protein sequences, listed by entry. Tags and fused reporters are not part of them. Lines headed by an entry give the natural chain unless they say otherwise; changes in a name come on top.
UniProt Q96AH0: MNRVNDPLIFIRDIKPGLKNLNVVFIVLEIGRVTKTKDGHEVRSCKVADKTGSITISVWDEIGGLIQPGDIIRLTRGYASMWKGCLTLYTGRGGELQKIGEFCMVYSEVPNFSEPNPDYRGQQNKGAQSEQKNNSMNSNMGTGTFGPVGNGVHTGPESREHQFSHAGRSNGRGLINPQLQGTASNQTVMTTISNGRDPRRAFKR
UniProt Q01831: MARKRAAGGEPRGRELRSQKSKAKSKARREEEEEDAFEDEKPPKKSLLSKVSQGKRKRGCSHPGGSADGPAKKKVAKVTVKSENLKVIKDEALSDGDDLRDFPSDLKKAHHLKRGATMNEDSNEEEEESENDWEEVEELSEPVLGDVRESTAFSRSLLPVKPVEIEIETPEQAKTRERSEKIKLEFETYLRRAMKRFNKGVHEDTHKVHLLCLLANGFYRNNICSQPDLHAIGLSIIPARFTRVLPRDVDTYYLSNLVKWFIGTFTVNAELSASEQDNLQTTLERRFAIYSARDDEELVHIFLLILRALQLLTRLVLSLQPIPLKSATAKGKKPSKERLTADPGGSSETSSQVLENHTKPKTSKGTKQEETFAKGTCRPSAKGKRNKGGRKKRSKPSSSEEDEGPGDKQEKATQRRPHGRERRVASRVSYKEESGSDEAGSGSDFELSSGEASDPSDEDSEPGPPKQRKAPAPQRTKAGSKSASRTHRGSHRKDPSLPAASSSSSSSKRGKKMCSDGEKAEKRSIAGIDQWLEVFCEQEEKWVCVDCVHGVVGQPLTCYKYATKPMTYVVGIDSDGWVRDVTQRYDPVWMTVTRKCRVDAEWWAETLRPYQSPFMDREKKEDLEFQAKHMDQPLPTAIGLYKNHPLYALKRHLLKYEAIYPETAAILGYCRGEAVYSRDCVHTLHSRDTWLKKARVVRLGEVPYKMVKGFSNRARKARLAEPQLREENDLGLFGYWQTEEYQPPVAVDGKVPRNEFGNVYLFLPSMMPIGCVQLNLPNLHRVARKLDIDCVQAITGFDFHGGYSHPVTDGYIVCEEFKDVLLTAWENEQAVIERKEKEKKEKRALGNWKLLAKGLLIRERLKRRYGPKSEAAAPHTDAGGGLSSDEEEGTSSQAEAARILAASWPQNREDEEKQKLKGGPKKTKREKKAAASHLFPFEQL
UniProt P15927: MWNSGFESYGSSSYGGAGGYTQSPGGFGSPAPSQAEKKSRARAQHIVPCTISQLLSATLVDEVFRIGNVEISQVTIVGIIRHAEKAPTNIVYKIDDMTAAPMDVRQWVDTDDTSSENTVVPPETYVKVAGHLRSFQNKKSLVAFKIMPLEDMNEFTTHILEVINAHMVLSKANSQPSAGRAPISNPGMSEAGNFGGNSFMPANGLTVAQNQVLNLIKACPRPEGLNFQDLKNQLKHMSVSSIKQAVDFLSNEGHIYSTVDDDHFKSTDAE

No constants are given. Whether binding was seen depends on the method and setting. For part of these data: Binding seen in cells or lysates may run through a third protein.

In test [1] the target is DNA-binding domain of hSSB2 (hSSB2-OB, residues 1–132) (human) (UniProt Q96AH0). As to the kind of experiment: SEC-MALS; 250 µg purified hSSB2-OB injected onto a Superose 12 10/30 column with in-line MALLS detector; 20 mM Tris pH 7, 100 mM NaCl, 1 mM EDTA, 1 mM TCEP (reducing); monomeric BSA as reference; both purified. (Size exclusion chromatography separates by hydrodynamic size, large species first.)

In test [2] the target is human Single-Stranded DNA Binding protein 2, hSSB2 (human) (UniProt Q96AH0). As to the kind of experiment: co-IP; endogenous proteins from sonicated cell lysate (20 mM HEPES pH 8.0, 150 mM KCl, 1 mM EDTA, 0.05% Igepal) precipitated with 2 µg anti-OBFC2A (hSSB2) or XPC antibody on protein G Dynabeads, 90 min at 4 °C, 6 washes, western blot; time points examined. (A western blot detects proteins with antibodies after separation by electrophoresis.)

For “DNA-binding domain of hSSB2 (hSSB2-OB, residues 1–132) (from UniProt Q96AH0 1-132) (domain or fragment)”, the binding result in test [1] is reported as “no binding (tested: 250 µg injected)”. Take “Xeroderma Pigmentosum group C (XPC) (from UniProt Q01831 1-940)”: the binding entry in test [2] is recorded as “no binding”.

Regarding “Replication Protein A (RPA32) (from UniProt P15927 1-270)”, the binding result in test [2] is listed as “no binding”.
